At least one structure is not confirmed: it was looked up by name or label, or the drawing left a doubt.
Columns and labels:
[1] = tested on: iNOS; assay: iNOS activity by nitrite and nitrite/nitrate accumulation in cytomix-stimulated human primary epithelial cells; assay type: cell-based; conditions: HPE cells, cytomix 24 hours; steroids at 10^−9 M to 10^−5 M
Experimental: The inducible form of the enzyme NO synthase, iNOS(NOS2), which is known to be expressed during inflammation, is thought to be responsible for increased NO levels of asthmatic patients. Agents known to induce iNOS in human primary epithelial cells, such as interleukin-1β, tumor necrosis factor-α, and interferon-γ (cytomix) are useful in assaying resveratrol for inhibition of iNOS expression and activity, and comparing its effect to steroids.
Human primary epithelial cells are cultured from normal donor tissue. Explant cultures of tissue obtained from normal human lung transplant donors provided human primary epithelial (HPE) cells. […]
These cells were stimulated for 24 hours with 50 ng/ml cytomix (interferon-γ) in the absence or presence of resveratrol, or one of glucocorticoids, dexamethasone and budenoside. Activity of iNOS is measured by determination of […] and nitrite/nitrate accumulation. Nitrite was measured by a modification of the method of Misko, et al. (1993) Anal. Biochem. 214:11-16. […] The reaction was stopped by addition of 10 μl of 1.4M NaOH, and fluorescense was measured with a Biolite F1 fluorimeter (Labtech, Uckfield, U.K.) set at: 460 nm emission wavelength, 360 nm excitation wavelength, 40-50% sensitivity. Sample nitrite concentration was calculated by reference to a standard curve of known nitrite concentrations, permitting assay sensitivity to 0.1 μM.

[2] = tested on: iNOS mRNA; assay: iNOS mRNA expression by RT-PCR in cytomix-treated primary epithelial cells; assay type: cell-based, human; conditions: primary epithelial cells treated 4 hours with cytomix
Experimental: Human primary epithelial cells are cultured from normal donor tissue. Explant cultures of tissue obtained from normal human lung transplant donors provided human primary epithelial (HPE) cells. The HPE cells were cultured in Ham's F12 nutrient medium containing 5% (v/v) fetal calf serum (FCS), 1 μM hydrocortisone, 5 ng/ml EGF (epithelial growth factor), 10 μg/ml insulin, 10 nM retinoic acid, 0.5 μg/ml transferrin, 2 μg/ml triiodothyronine, 1.5 μg/ml NaHCO3, 100 μg/ml penicillin, 100 μg/ml streptomycin and 0.25 μg/m amphotericin B; the cells were incubated at 37° C. in a humidified atmosphere containing 95% (v/v) air, 5% (v/v) CO2. The HPE cells were cultured for the last 24 hours prior to the experimental treatments under the same conditions except that additive free Ham's F12 media was substituted for the supplemented Ham's F12 media described above.
Expression of mRNA for iNOS was evaluated by RT-PCR of RNA extracted from the cells using the Qiagen RNeasy mini kit as directed by the manufacturer (Crawley, Sussex, U.K.). RT-PCR was performed according to routine methods. […]

Row | Compound | inhibition of nitrite formation / accumulation in the cell culture media [1] | inhibition of iNOS expression as measured by mRNA [2]
1 | C[C@@H]1C[C@H]2[C@@H]3CCC4=CC(=O)C=C[C@]4(C)[C@@]3(F)[C@@H](O)C[C@]2(C)[C@@]1(O)C(=O)CO [Dexamethasone, dexamethasone, reference compound] | failed to inhibit nitrite accumulation | Only resveratrol inhibited iNOS expression
2 | CCCC1O[C@@H]2C[C@H]3[C@@H]4CCC5=CC(=O)C=C[C@]5(C)[C@H]4[C@@H](O)C[C@]3(C)[C@]2(C(=O)CO)O1 (stereo partly shown) [budesonide, reference compound] | failed to inhibit nitrite accumulation | Only resveratrol inhibited iNOS expression
